These are yes or no findings as the source states them, for the method shown. Binding can be weak; no strength is given. Tags and fused reporters may be left off the sequences shown.

The chains behind the UniProt entries cited, without tags or fusion partners. Where a name states a change or a piece, a line headed by the entry shows the natural chain unless it says otherwise.
UniProt Q15637: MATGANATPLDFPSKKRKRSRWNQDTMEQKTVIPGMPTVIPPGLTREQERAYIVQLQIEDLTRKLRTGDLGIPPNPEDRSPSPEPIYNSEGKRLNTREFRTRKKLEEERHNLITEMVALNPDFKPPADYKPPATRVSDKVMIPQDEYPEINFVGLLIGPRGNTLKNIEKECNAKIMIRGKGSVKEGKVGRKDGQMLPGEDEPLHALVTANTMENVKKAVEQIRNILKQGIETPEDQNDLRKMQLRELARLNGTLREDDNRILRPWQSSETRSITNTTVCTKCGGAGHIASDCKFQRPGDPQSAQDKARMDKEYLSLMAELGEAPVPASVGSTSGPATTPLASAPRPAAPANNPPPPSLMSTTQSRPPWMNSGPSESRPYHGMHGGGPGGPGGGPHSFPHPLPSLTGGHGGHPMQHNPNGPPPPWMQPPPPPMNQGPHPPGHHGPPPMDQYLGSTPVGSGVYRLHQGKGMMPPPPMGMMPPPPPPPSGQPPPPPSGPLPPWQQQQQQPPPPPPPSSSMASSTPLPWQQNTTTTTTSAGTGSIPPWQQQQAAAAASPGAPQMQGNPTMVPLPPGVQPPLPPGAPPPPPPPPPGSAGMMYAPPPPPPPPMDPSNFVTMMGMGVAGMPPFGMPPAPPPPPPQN

For two substances, binding results are on record in article PMC4666396.

The target of one assay is T1, GST-SF3a120-SURP1 (UniProt Q15459).
T1 sequence: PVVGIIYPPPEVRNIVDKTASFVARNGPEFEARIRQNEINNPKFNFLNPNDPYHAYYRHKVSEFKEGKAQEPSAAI
Description: pull-down; GST fusion proteins on glutathione-agarose; His6- or His6-MBP-tagged SF1 proteins in two-fold molar excess; NETN (20 mM Tris-HCl pH 8.0, 50 mM NaCl, 0.5% NP-40, 0.5 mM EDTA), 45 min 4°C; with or without RNase A; western blot with anti-His6; both purified. A general note: In western blotting, separated proteins are transferred to a membrane and probed.

In another assay the target is T2, GST-CHERP-SURP (UniProt Q8IWX8).
T2 sequence: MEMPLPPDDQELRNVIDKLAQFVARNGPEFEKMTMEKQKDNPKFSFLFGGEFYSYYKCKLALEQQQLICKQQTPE
The assay is described as above.

On to “His6-MBP-SF1-C370 ΔZn (from UniProt Q15637) (domain or fragment)”, for which the binding entry with GST-SF3a120-SURP1 and in the assay with GST-CHERP-SURP was “binds” each time.
On to “His6-MBP-SF1-C370 ΔKH (from UniProt Q15637) (domain or fragment)”, for which the binding result with GST-SF3a120-SURP1 and with GST-CHERP-SURP was “binds” in each case.
